Laboratory results taken from PubChem BioAssay AID1794845 (National Center for Advancing Translational Sciences (NCATS), 2023).
Fewer than 10 of roughly 6,900 compounds were called active. Calls follow the shape of the dose curve; as a rule, active = well fitted curve in the direction sought with a large enough effect; inconclusive = small, poorly fitted or top-dose-only effect, or another doubt; inactive = no such curve, though single readings can be large or run the other way. This is one part of the list.

Chains of the proteins cited; added tags and fusions are not shown. Lines headed by an entry give the natural chain unless they say otherwise; changes in a name come on top.
UniProt C7C422: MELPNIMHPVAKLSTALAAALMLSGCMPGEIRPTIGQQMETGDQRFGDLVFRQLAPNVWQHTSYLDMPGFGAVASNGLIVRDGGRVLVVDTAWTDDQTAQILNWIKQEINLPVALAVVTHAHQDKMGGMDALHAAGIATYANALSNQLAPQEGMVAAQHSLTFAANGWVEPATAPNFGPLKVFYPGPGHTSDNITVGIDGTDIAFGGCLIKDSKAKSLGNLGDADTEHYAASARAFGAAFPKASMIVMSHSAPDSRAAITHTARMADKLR

molecular target: Metallo-beta-lactamase type 2 (Klebsiella pneumoniae) (UniProt C7C422); experiment: qHTS to identify inhibitors of the New Delhi Metallo-beta-lactamase (NDM): primary screen against the NCATS Gemini Collection; details: NDM-1 enzyme, meropenem hydrolysis, absorbance 300 nm; at 38.4 µM (top of the series) unless noted; also: % of control where 0% means no effect
Procedure, shortened: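 Meropenem hydrolysis (50 uM final) by 2 nM NDM-1 read as 300 nm absorbance after 30 min, following >30 min compound–enzyme preincubation in HEPES pH 7.0 with 1 uM ZnSO4 and 0.01% Tween20.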

Activity % (negative = inhibition), inactive:
CCn1ncc(N2CCCC(CC(=O)Nc3cc(OC)cc(OC)c3)C2)cc1=O (centres undefined) 42.6%, Cn1cccc1CN1CC(F)(F)C[C@H]1c1nnc(C2CC2)o1 5.85%, O=C(c1ccc(Cl)cc1)N1CCCC2(CNc3ncccc3[S+](=O)([O-])N2)C1 (centres undefined) 25.3%, COc1ccc(CCN(Cc2ccccn2)C(=O)[C@H]2CCC[C@H](O)C2)cc1 12.7%, Cc1ccc(-c2cc3c(ccn3C)c(C(=O)NCc3cccnc3)n2)cn1 9.15% [at 57.5 µM], COC[C@]1(O)CCN(C(=O)c2oc(COc3ccccc3)cc2C)CC1(C)C 13.3%, CCCCS(=O)(=O)N1CCC(c2nnc(Cn3cncn3)n2C)CC1 20.2%, C#CCNC(=O)CNC(=O)c1cccc(-c2cc(F)ccc2OC)c1 3.26% [at 57.5 µM], O=C(N[C@H](c1cccs1)C1CC(O)C1)c1cnn2cc(CCO)cnc12 (some centres undefined) 12%, CCn1nccc1C(=O)N1CCC(Nc2nccnc2OC)CC1 -5.5%, CCc1noc([C@@H]2CC(F)(F)CN2C(=O)c2cc(C3CC3)[nH]n2)n1 6.71%, CN(Cc1cc(F)c(F)c(F)c1)C1CCc2nn(CC3CC3)c(=O)n2CC1 (centres undefined) 16%, Cc1nc([C@@H]2CN(C(=O)c3nn(C)c4ccccc34)C[C@H]2C(N)=O)n[nH]1 20.5%, CC(C)CCNC(=O)[C@H]1CN(Cc2ccccc2)C[C@H]1C(=O)O 1.31%, O=C1CN([S+](=O)([O-])c2ccc(F)cc2)CC(O)CN1Cc1cccs1 (centres undefined) 2.28%, CC(=O)N1CC2(CCCN(C3CCCCC3)C2)Cc2ccccc21 (centres undefined) 0.985%, COCc1nc(-c2ccc(OC3CN(C(=O)NCc4ccc(OC)cc4)C3)cc2)no1 9.24%, CC1(c2noc(C3CC3)n2)CCN(C(=O)CCCc2nc3ccccc3s2)CC1 -0.598%, Cc1ccccc1Cc1c(C)nc2c(C(=O)N3CCC(Cc4nncn4CC4CC4)CC3)cnn2c1C 22.3%, CNC(=O)N1CCCC(n2c(C)cnc2-c2ccncc2)C1 (centres undefined) 1.34%, COc1cccc(CNC(=O)NC2CCc3n[nH]c(=O)n3CC2)c1 (centres undefined) -0.469%, COc1ccc([C@@H]2CN(c3nnnn3-c3ccccc3)C[C@H]2NC(C)=O)cc1 0.261%, Cc1ccc(NC(=O)C2N(C(C)C)C(=O)C23CCCCC3)cc1 (centres undefined) 0.865%, Cc1ccc(C(=O)N2CCC(C(=O)N3CCCCCCNC(=O)CC3)CC2)s1 0.335%, Cc1noc([C@@H]2CN(Cc3ccc[nH]3)C[C@H]2CO)n1 10.5%, O=C(c1ccc(-c2ccc(O)cc2)cc1)N1CCOC2(CNCCOC2)C1 (centres undefined) 3.21%, COCCCNC(=O)C(NC(=O)C1CC1)C1CCN(C(=O)c2ccc(C)cc2)CC1 (centres undefined) 34.1%, c1ccc(OCCNc2nc(-c3cccnc3)nc3c2CCNCC3)cc1 -0.698%, COc1ccc(OC2CCN(C(C)=O)CC2)c(C(=O)NCCc2ccccc2OC)c1 -0.467%, O=C(c1ccoc1)N1CCC(Cc2nc(C3CC3)n[nH]2)C1 (centres undefined) -1.2%, COc1ccc(C(=O)N2CCC3(CC2)OCC(C(=O)NC2CC2)N3C(=O)c2cccc(C)c2)cc1 (centres undefined) 15.3%, COc1ccc(N2CCN(C(=O)COc3cccc(-c4nnc5n4CCCC5)c3)CC2)cc1 4.75%, CN1CC(=O)N(C2CCNC2)Cc2c(NCCc3cccc(F)c3)ncnc21 (centres undefined) 18.3%, O=C(O)C[C@@H]1CCN(C(=O)c2ccco2)C[C@@H]1CCN1CCOCC1 -0.225% [at 57.5 µM], COc1cccc(CNC(=O)C2CN(c3ccc(F)cc3)C(=O)N2)c1 (centres undefined) 0.276%, CNC(=O)Cn1nc(C(=O)N2CCC3(CC2)[C@H](O)C[C@@H]3O)cc1C 4.84%, CC(C)c1ccc(CN2CCCC3(CCN(S(C)(=O)=O)C3)C2=O)cc1 (centres undefined) 13.2%, C=CCOc1c(OC)ccc2c1CN(Cc1ccco1)C(=O)CCN2CC(O)COCc1ccco1 (centres undefined) -5.22%, O=C1Nc2ccccc2C(=O)N2CC[C@H](NS(=O)(=O)c3cccs3)[C@@H]12 16.5% [at 57.5 µM], NC(=O)c1ccccc1OC[C@@H]1CCCN2CCCC[C@H]12 8.59%, O=C(NC1CC1)c1cc2n(n1)CCCN(C(=O)c1ccccc1-c1ccccc1)C2 -3.19%, COc1ccc(C(=O)N[C@@H]2CCC[C@@H]2C(=O)NCc2ccc(C)o2)cn1 -0.106%, CN(Cc1ncc[nH]1)C(=O)C1CCC(=O)N(CCc2ccccn2)C1 (centres undefined) 53.9%, CC1CCCN(c2ncnc3c2CN(c2cccnc2)C(=O)CN3C)C1 (centres undefined) 4.35%, CCc1cc(C(=O)N2CCOCC2CC(=O)N2CCSCC2)cs1 (centres undefined) -1.86%, COCC(=O)N1CCC(Oc2ccccc2C(=O)N2CCN(c3ccccn3)CC2)CC1 7.46%, CNC(=O)c1cccc(S(=O)(=O)NC2CCCN(C3CCCCCC3)C2)c1 (centres undefined) 13%, CCc1cc(=O)n(CC(=O)N2CCN(c3ccccc3OC)CC2)c(-c2ccccc2)n1 -0.786%, CN1C[C@H](O)C[C@H]1c1nnc2n1CCN(C(=O)c1cccnc1)CC2 0.953%, Cn1c(Cn2ccnc2)nnc1C1CCCN(CCOCc2ccccc2)C1 (centres undefined) 36.4%, COc1ccc(C(=O)NC[C@H]2O[C@@H](CC(=O)Nc3ccccc3)[C@H](O)[C@@H]2O)cc1 -1.83% [at 57.5 µM], COc1ccc(CC(=O)N2CC[C@@H](CC(=O)O)[C@@H](CCN(C)c3ccccc3)C2)cc1 43.7% [at 57.5 µM], CNC(=O)c1cc(C2CC2)nc2c1c(C1CCCN1C(=O)c1ccc(C(F)(F)F)cc1)nn2C (centres undefined) 3.13%, CN1CC(C(=O)N2CCN(Cc3ccccc3)CC2)NC1=O (centres undefined) 4.15% [at 57.5 µM]
